Reference: PMC9138505, “Small Molecule 20S Proteasome Enhancer Regulates MYC Protein Stability and Exhibits Antitumor Activity in Multiple Myeloma” (Biomedicines, 2022)

Tested on: RPMI-8226 cells
Assay: Gene expression profiling, NanoString nCounter PanCancer Pathways Panel, ROSALIND analysis
Type: cell-based, human
Conditions: RPMI-8226, TCH-165 10 μM, 4 h
Description: RPMI-8226 cells were treated with vehicle or TCH-165 (10 μM) for 4 h. Total RNA was obtained using the mirVana miRNA Isolation Kit, with phenol (Thermofisher Scientific; AM1560; Waltham, MA, USA). Total RNA was quantified by Qubit (Thermofisher Scientific; Q32855; Waltham, MA, USA). and gene expression was evaluated against the nCounter® PanCancer Pathways Panel^TM according to the standard NanoString protocol.
Data were analyzed by ROSALIND® [36] with a hyperscale architecture developed by ROSALIND, Inc. (San Diego, CA, USA). Normalization, fold changes and p-values were calculated using criteria provided by NanoString. ROSALIND follows the nCounter® Advanced Analysis protocol of dividing counts within a lane by the geometric mean of the normalizer probes from the same lane. Housekeeping probes to be used for normalization are selected based on the geNorm algorithm, as implemented in the NormqPCR R library. Fold changes and p-values are calculated using the fast method as described in the nCounter Advanced Analysis 2.0 User Manual. The p-value adjustment is performed using the Benjamini–Hochberg method of estimating false discovery rates (FDR). Clustering of genes for the final heatmap of differentially expressed genes was done using the PAM (Partitioning Around Medoids) method using the fpc R library. Hypergeometric distribution was used to analyze the enrichment of pathways, gene ontology, domain structure and other ontologies. The topGO R library was used to determine local similarities and dependencies between GO terms in order to perform Elim pruning correction. Several database sources were referenced for enrichment analysis, including Interpro [40], NCBI [41], MSigDB [42, 43], REACTOME [44], WikiPathways. Enrichment was calculated relative to a set of background genes relevant to the experiment.

[1] = of 730 detected genes, 1.5-fold change, p-adjusted <0.05

## CCOC(=O)[C@]1(c2ccccc2)N=C(c2ccc(OC)cc2)N(Cc2ccccc2)[C@@H]1c1ccc(NCc2ccccc2)cc1 [TCH-165]
ROSALIND gene set enrichment
  directed significance score, JAK-STAT pathway: −3.59
  directed significance score, Wnt pathway: -3.6
  directed significance score, transcriptional misregulation pathway: −9.6
[1]
  number of genes significantly downregulated: 16
  number of genes significantly upregulated: 32
